Data as given in US20120021995A1 (published 2012).
No constants are given. Whether binding was seen depends on the method and setting. Some binding calls cover weakened binding; strength is not graded here. For part of these data: Tags and fused reporters may be left off the sequences shown.

Sequences of proteins named here, by UniProt entry; tags and fusion partners are left off. A change or cut given only in a name is not applied to a line headed by its entry.
UniProt O14763: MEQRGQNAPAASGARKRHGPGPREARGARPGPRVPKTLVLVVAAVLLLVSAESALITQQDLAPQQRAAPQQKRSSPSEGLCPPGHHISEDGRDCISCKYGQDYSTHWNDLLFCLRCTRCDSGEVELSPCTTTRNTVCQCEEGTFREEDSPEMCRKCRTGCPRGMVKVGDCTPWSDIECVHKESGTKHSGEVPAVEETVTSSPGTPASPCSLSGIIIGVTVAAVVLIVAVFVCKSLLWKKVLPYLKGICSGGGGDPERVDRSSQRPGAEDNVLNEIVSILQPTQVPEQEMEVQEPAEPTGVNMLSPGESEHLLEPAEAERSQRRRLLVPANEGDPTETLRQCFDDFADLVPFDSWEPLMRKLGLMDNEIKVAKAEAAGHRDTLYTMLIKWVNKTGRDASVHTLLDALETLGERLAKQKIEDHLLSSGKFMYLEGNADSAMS

T1: recombinant human TRAIL R1 (DR4)/Fc chimera (human) (UniProt O00220)
T1 sequence: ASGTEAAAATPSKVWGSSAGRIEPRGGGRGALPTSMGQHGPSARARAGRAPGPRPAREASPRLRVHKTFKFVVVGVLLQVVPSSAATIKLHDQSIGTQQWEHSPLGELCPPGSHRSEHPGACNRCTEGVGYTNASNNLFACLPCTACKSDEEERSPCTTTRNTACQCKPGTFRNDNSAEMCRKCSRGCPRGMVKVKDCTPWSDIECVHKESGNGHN


These binders were tested against T1, recombinant human TRAIL R1 (DR4)/Fc chimera (human) (assay: phage ELISA on DR4/Fc).

binding | Binder
binds | 119p83P1D9Q (designed binder) ALQTVCLKGTKVHMKCFLAFTQTKTFHEASEDCISRGGTLSTPQTGSENDALYEYLRQSVGNEAEIWLGLNGWLEGVGWVDMTGARIAYKNWEHPEPWHQPDGGWPFSNENCAVLSGAANGKWFDKRCRDQLPYICQFGIV
binds | 014-42.3B8 (designed binder, ATRIMER; also called 14p42P3B8) EPPTQKPKKIVNAKKDVVNTKMFEELKSRLDTLAQEVALLKEQQALQTVCLKGTKVHMKCFLAFTQTKTFHEASEDCISRGGTLSTPQTGSENDALYEYLRQSVGNEAEIWLGLNGWLEGVGWVDMTGARIAYKNWETEITAQPDGGEHWGWENCAVLSGAANGKWFDKRCRDQLPYICQFGIV
binds | 119p94P1D8 (designed binder, ATRIMER from pANA19) EPPTQKPKKIVNAKKDVVNTKMFEELKSRLDTLAQEVALLKEQQALQTVCLKGTKVHMKCFLAFTQTKTFHEASEDCISRGGTLSTPQTGSENDALYEYLRQSVGNEAEIWLGLNGWLEGVGWVDMTGARIAYKNWGWMDSKQPDGGWPFSNENCAVLSGAANGKWFDKRCRDQLPYICQFGIV
binds | 119p94P1G7 (designed binder, ATRIMER from pANA19) EPPTQKPKKIVNAKKDVVNTKMFEELKSRLDTLAQEVALLKEQQALQTVCLKGTKVHMKCFLAFTQTKTFHEASEDCISRGGTLSTPQTGSENDALYEYLRQSVGNEAEIWLGLNGWLEGVGWVDMTGARIAYKNWGWSARVQPDGGWPFSNENCAVLSGAANGKWFDKRCRDQLPYICQFGIV
binds | 119p83P1H1 (designed binder, ATRIMER from pANA19) EPPTQKPKKIVNAKKDVVNTKMFEELKSRLDTLAQEVALLKEQQALQTVCLKGTKVHMKCFLAFTQTKTFHEASEDCISRGGTLSTPQTGSENDALYEYLRQSVGNEAEIWLGLNGWLEGVGWVDMTGARIAYKNWTQRHSGQPDGGWPFSNENCAVLSGAANGKWFDKRCRDQLPYICQFGIV
binds | 71p88P1B3 (designed binder) EPPTQKPKKIVNAKKDVVNTKMFEELKSRLDTLAQEVALLKEQQALQTVCLKGTKVHMKCFLAFTQTKTFHEASEDCISRGGTLSTPQTGSENDALYEYLRQSVGNEAEIWLGLNGWLEGSGWVDMTGARIAYKNWETEITAQPDGGVQWRWENCAVLSGAANGKWFDKRCRDQLPYICQFGIV
binds | 119p94P1B4 (designed binder, ATRIMER from pANA19) EPPTQKPKKIVNAKKDVVNTKMFEELKSRLDTLAQEVALLKEQQALQTVCLKGTKVHMKCFLAFTQTKTFHEASEDCISRGGTLSTPQTGSENDALYEYLRQSVGNEAEIWLGLNGWLEGVGWVDMTGARIAYKNWAEVPFFQPDGGWPFSNENCAVLSGAANGKWFDKRCRDQLPYICQFGIV
binds | 119p94P1F4 (designed binder, ATRIMER from pANA19) EPPTQKPKKIVNAKKDVVNTKMFEELKSRLDTLAQEVALLKEQQALQTVCLKGTKVHMKCFLAFTQTKTFHEASEDCISRGGTLSTPQTGSENDALYEYLRQSVGNEAEIWLGLNGWLEGVGWVDMTGARIAYKNWAAVTMEQPDGGWPFSNENCAVLSGAANGKWFDKRCRDQLPYICQFGIV
binds | 119p94P1C1 (designed binder, ATRIMER from pANA19) EPPTQKPKKIVNAKKDVVNTKMFEELKSRLDTLAQEVALLKEQQALQTVCLKGTKVHMKCFLAFTQTKTFHEASEDCISRGGTLSTPQTGSENDALYEYLRQSVGNEAEIWLGLNGWLEGVGWVDMTGARIAYKNWAISDERQPDGGWPFSNENCAVLSGAANGKWFDKRCRDQLPYICQFGIV
binds | 119p94P1B5 (designed binder, ATRIMER from pANA19) EPPTQKPKKIVNAKKDVVNTKMFEELKSRLDTLAQEVALLKEQQALQTVCLKGTKVHMKCFLAFTQTKTFHEASEDCISRGGTLSTPQTGSENDALYEYLRQSVGNEAEIWLGLNGWLEGVGWVDMTGARIAYKNWARHINEQPDGGWPFSNENCAVLSGAANGKWFDKRCRDQLPYICQFGIV
binds | 119p83P1H4 (designed binder, ATRIMER from pANA19) EPPTQKPKKIVNAKKDVVNTKMFEELKSRLDTLAQEVALLKEQQALQTVCLKGTKVHMKCFLAFTQTKTFHEASEDCISRGGTLSTPQTGSENDALYEYLRQSVGNEAEIWLGLNGWLEGVGWVDMTGARIAYKNWSKVRLEQPDGGWPFSNENCAVLSGAANGKWFDKRCRDQLPYICQFGIV

What follows are binders tested against recombinant human TRAIL R2 (DR5)/Fc chimera (human) (UniProt O14763) (assay: panning of the peptide trimer phage library on DR5-Fc).

binding | Binder
binds | 132p103P9E8 (peptide, not shown: small tags and cut ends) TKIDDNALVITQKARWRVVNTKMFEELKSRLDTLAQEVALLKEQQALQTVCLK
binds | 132p105P10B1 (peptide, not shown: small tags and cut ends) chain (part 1 of 2): FYPSVCLTSCASIQR chain (part 2 of 2): VVNTKMFEELKSRLDTLAQEVALLKEQQALQTVCLK
binds | 132p18P3A10 (peptide, not shown: small tags and cut ends) chain (part 1 of 2): MHMTPPYLCRWGCAT chain (part 2 of 2): VVNTKMFEELKSRLDTLAQEVALLKEQQALQTVCLK
binds | 132p105P9A6 (peptide, not shown: small tags and cut ends) chain (part 1 of 2): QGPTIMGPYLCTYGC chain (part 2 of 2): VVNTKMFEELKSRLDTLAQEVALLKEQQALQTVCLK
binds | 132p104P9C10 (peptide, not shown: small tags and cut ends) chain (part 1 of 2): WTASSKFCSRPFLTC chain (part 2 of 2): VVNTKMFEELKSRLDTLAQEVALLKEQQALQTVCLK
binds | 132p19P5D1 (peptide, not shown: small tags and cut ends) chain (part 1 of 2): VVMNGPFLCRTPCLV chain (part 2 of 2): VVNTKMFEELKSRLDTLAQEVALLKEQQALQTVCLK
binds | 132p103P11E7-1 (peptide, not shown: small tags and cut ends) chain (part 1 of 2): QEGWTFSCMPYLTCR chain (part 2 of 2): VVNTKMFEELKSRLDTLAQEVALLKEQQALQTVCLK
binds | 132p103P11E7-4 (peptide, not shown: small tags and cut ends) chain (part 1 of 2): QMNCRPILTCKHRTL chain (part 2 of 2): VVNTKMFEELKSRLDTLAQEVALLKEQQALQTVCLK
binds | 132p45P7G2 (peptide, not shown: small tags and cut ends) chain (part 1 of 2): GGCLPYLTCRMGSVT chain (part 2 of 2): VVNTKMFEELKSRLDTLAQEVALLKEQQALQTVCLK

These binders were tested against T1, recombinant human TRAIL R1 (DR4)/Fc chimera (human) (assay: SPR (Biacore) after Alexa Fluor-488 conjugation).

binding | Binder
binds | 014-42.3B8 (designed binder, ATRIMER; also called 14p42P3B8) EPPTQKPKKIVNAKKDVVNTKMFEELKSRLDTLAQEVALLKEQQALQTVCLKGTKVHMKCFLAFTQTKTFHEASEDCISRGGTLSTPQTGSENDALYEYLRQSVGNEAEIWLGLNGWLEGVGWVDMTGARIAYKNWETEITAQPDGGEHWGWENCAVLSGAANGKWFDKRCRDQLPYICQFGIV
binds | 71p88P1B3 (designed binder) EPPTQKPKKIVNAKKDVVNTKMFEELKSRLDTLAQEVALLKEQQALQTVCLKGTKVHMKCFLAFTQTKTFHEASEDCISRGGTLSTPQTGSENDALYEYLRQSVGNEAEIWLGLNGWLEGSGWVDMTGARIAYKNWETEITAQPDGGVQWRWENCAVLSGAANGKWFDKRCRDQLPYICQFGIV
binds | 119p94P1B5 (designed binder, ATRIMER from pANA19) EPPTQKPKKIVNAKKDVVNTKMFEELKSRLDTLAQEVALLKEQQALQTVCLKGTKVHMKCFLAFTQTKTFHEASEDCISRGGTLSTPQTGSENDALYEYLRQSVGNEAEIWLGLNGWLEGVGWVDMTGARIAYKNWARHINEQPDGGWPFSNENCAVLSGAANGKWFDKRCRDQLPYICQFGIV
binds | 119p83P1H4 (designed binder, ATRIMER from pANA19) EPPTQKPKKIVNAKKDVVNTKMFEELKSRLDTLAQEVALLKEQQALQTVCLKGTKVHMKCFLAFTQTKTFHEASEDCISRGGTLSTPQTGSENDALYEYLRQSVGNEAEIWLGLNGWLEGVGWVDMTGARIAYKNWSKVRLEQPDGGWPFSNENCAVLSGAANGKWFDKRCRDQLPYICQFGIV
